Data source: PubChem BioAssay AID1259405 (NCATS, 2018)
Test: 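Silenced genes that increase secreted GFP made by CHO cells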 (primary screen). System: Chinese hamster CHO-K1 ovary cells with stable secreted eGFP expression. Knock-down reagent: single siRNA against mouse genes, 0.8 pmol siRNA per well (2 µl of 400 nM stock). Time to read-out: 3 days. Measured: 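Percent of the per-plate non-targeting control median for intracellular GFP per well by laser scanning cytometry and for cell viability by ATP luminescence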. Direction: GFP, % of control: higher = more GFP per well, higher productivity; viability (ATP), % of control: higher = more viable cells (more ATP). Hit rule: 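a knock-down is called active if GFP reaches 120% or more of non-targeting control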.
In all, the deposit lists about 50,000 reagents; shown is an unselected part. About 4,000 of all reagents (8%) count as active. 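Mouse siRNA library applied to hamster cells; one well for each siRNA.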 Reagents against one gene are numbered here.

Target gene,siRNA no.,"GFP, % of control","viability (ATP), % of control",Outcome
Shld2 (shieldin complex subunit 2),1,109,69.2,inactive
Shld2 (shieldin complex subunit 2),2,130,84.6,active
Shld2 (shieldin complex subunit 2),3,106,82.6,inactive
Lcn8 (lipocalin 8),1,90.5,86.8,inactive
Lcn8 (lipocalin 8),2,101,70.3,inactive
Lcn8 (lipocalin 8),3,132,63.9,active
AI854703 (expressed sequence AI854703),1,68,107,inactive
AI854703 (expressed sequence AI854703),2,71.4,61.5,inactive
AI854703 (expressed sequence AI854703),3,49.1,80.2,inactive
Cox8a (cytochrome c oxidase subunit 8A),1,90.1,110,inactive
Cox8a (cytochrome c oxidase subunit 8A),2,86.8,66.6,inactive
Cox8a (cytochrome c oxidase subunit 8A),3,61.9,104,inactive
Sema4f,1,42.9,64.9,inactive
Sema4f,2,92.5,86.1,inactive
Sema4f,3,88.1,113,inactive
Zfp384 (zinc finger protein 384),1,114,57.9,inactive
Zfp384 (zinc finger protein 384),2,89.2,88.2,inactive
Pkn2 (protein kinase N2),1,54.8,59,inactive
Pkn2 (protein kinase N2),2,64.1,50,inactive
Pkn2 (protein kinase N2),3,73.9,73.5,inactive
Prdx1 (peroxiredoxin 1),1,79.7,77.2,inactive
Prdx1 (peroxiredoxin 1),2,87.4,68,inactive
Prdx1 (peroxiredoxin 1),3,57.9,39.4,inactive
Sox8 (SRY (sex determining region Y)-box 8),1,41.5,46.6,inactive
Sox8 (SRY (sex determining region Y)-box 8),2,68,85.5,inactive
Sox8 (SRY (sex determining region Y)-box 8),3,100,113,inactive
Or2ab1 (olfactory receptor family 2 subfamily AB member 1),1,100,75.4,inactive
Or2ab1 (olfactory receptor family 2 subfamily AB member 1),2,86.9,58.9,inactive
Or2ab1 (olfactory receptor family 2 subfamily AB member 1),3,131,68,active
Ccl26 (C-C motif chemokine ligand 26),1,51.8,56.1,inactive
Ccl26 (C-C motif chemokine ligand 26),2,38.6,31,inactive
Ccl26 (C-C motif chemokine ligand 26),3,100,72.6,inactive
Or2b2 (olfactory receptor family 2 subfamily B member 2),1,53.5,85.3,inactive
Or2b2 (olfactory receptor family 2 subfamily B member 2),2,66.7,61,inactive
Or2b2 (olfactory receptor family 2 subfamily B member 2),3,48.6,101,inactive
Mapk3 (mitogen-activated protein kinase 3),1,85.9,96.1,inactive
Polr1a (polymerase (RNA) I polypeptide A),1,151,121,active
Polr1a (polymerase (RNA) I polypeptide A),2,66.3,74.7,inactive
Polr1a (polymerase (RNA) I polypeptide A),3,110,83.7,inactive
Polr1a (polymerase (RNA) I polypeptide A),4,53.8,85.5,inactive
Polr1a (polymerase (RNA) I polypeptide A),5,85.2,86.7,inactive
"Rab12 (RAB12, member RAS oncogene family)",1,85.7,77.2,inactive
"Rab12 (RAB12, member RAS oncogene family)",2,11.9,24.5,inactive
"Rab12 (RAB12, member RAS oncogene family)",3,68.9,75.4,inactive
Dcpp1 (demilune cell and parotid protein 1),1,67.5,89.8,inactive
Dcpp1 (demilune cell and parotid protein 1),2,67,70.3,inactive
Dcpp1 (demilune cell and parotid protein 1),3,77.8,63,inactive
Dcpp1 (demilune cell and parotid protein 1),4,48,55,inactive
Dcpp1 (demilune cell and parotid protein 1),5,123,66.1,active
Dcpp1 (demilune cell and parotid protein 1),6,98.1,78.3,inactive
Nxt2 (nuclear transport factor 2-like export factor 2),1,71.4,60.7,inactive
Nxt2 (nuclear transport factor 2-like export factor 2),2,55.7,60.4,inactive
Nxt2 (nuclear transport factor 2-like export factor 2),3,107,70.6,inactive
Gpr143 (G protein-coupled receptor 143),1,106,64.8,inactive
Gpr143 (G protein-coupled receptor 143),2,91.7,88.8,inactive
Cenpn (centromere protein N),1,67.1,55.4,inactive
Cenpn (centromere protein N),2,59.3,52.8,inactive
Cenpn (centromere protein N),3,23.1,22.5,inactive

The list goes on; the last 10 above are carried over.
Target gene,siRNA no.,"GFP, % of control","viability (ATP), % of control",Outcome
Dcpp1 (demilune cell and parotid protein 1),5,123,66.1,active
Dcpp1 (demilune cell and parotid protein 1),6,98.1,78.3,inactive
Nxt2 (nuclear transport factor 2-like export factor 2),1,71.4,60.7,inactive
Nxt2 (nuclear transport factor 2-like export factor 2),2,55.7,60.4,inactive
Nxt2 (nuclear transport factor 2-like export factor 2),3,107,70.6,inactive
Gpr143 (G protein-coupled receptor 143),1,106,64.8,inactive
Gpr143 (G protein-coupled receptor 143),2,91.7,88.8,inactive
Cenpn (centromere protein N),1,67.1,55.4,inactive
Cenpn (centromere protein N),2,59.3,52.8,inactive
Cenpn (centromere protein N),3,23.1,22.5,inactive
"Kcnv2 (potassium channel, subfamily V, member 2)",1,71.9,91.4,inactive
"Kcnv2 (potassium channel, subfamily V, member 2)",2,92.2,102,inactive
"Kcnv2 (potassium channel, subfamily V, member 2)",3,84.2,69.3,inactive
"Arr3 (arrestin 3, retinal)",1,86.9,89.3,inactive
"Arr3 (arrestin 3, retinal)",2,58.4,63.6,inactive
Hipk1 (homeodomain interacting protein kinase 1),1,101,45.5,inactive
Hipk1 (homeodomain interacting protein kinase 1),2,69.2,59.5,inactive
Hipk1 (homeodomain interacting protein kinase 1),3,78.2,91.2,inactive
Hs1bp3 (HCLS1 binding protein 3),1,62.6,98.7,inactive
Hs1bp3 (HCLS1 binding protein 3),2,107,75.6,inactive
"Gprc5d (G protein-coupled receptor, family C, group 5, member D)",1,57.3,88.2,inactive
"Gprc5d (G protein-coupled receptor, family C, group 5, member D)",2,56.8,72,inactive
"Kcnq2 (potassium voltage-gated channel, subfamily Q, member 2)",1,63.7,32.5,inactive
"Kcnq2 (potassium voltage-gated channel, subfamily Q, member 2)",2,89.6,58.9,inactive
"Kcnq2 (potassium voltage-gated channel, subfamily Q, member 2)",3,56.4,73.8,inactive
Uxt (ubiquitously expressed prefoldin like chaperone),1,82.3,74.2,inactive
Uxt (ubiquitously expressed prefoldin like chaperone),2,48.9,62.6,inactive
Uxt (ubiquitously expressed prefoldin like chaperone),3,67.7,87.7,inactive
"Prl3b1 (prolactin family 3, subfamily b, member 1)",1,56.6,55.5,inactive
"Prl3b1 (prolactin family 3, subfamily b, member 1)",2,76.8,79,inactive
"Prl3b1 (prolactin family 3, subfamily b, member 1)",3,94.2,75.4,inactive
Fh1 (fumarate hydratase 1),1,40.3,61.2,inactive
Fh1 (fumarate hydratase 1),2,65.6,90.5,inactive
Fh1 (fumarate hydratase 1),3,84.4,92,inactive
Tmem223 (transmembrane protein 223),1,123,104,active
Tmem223 (transmembrane protein 223),2,127,124,active
Tmem223 (transmembrane protein 223),3,132,83.2,active
Slc34a3,1,103,67.9,inactive
Slc34a3,2,50.4,37.4,inactive
Slc34a3,3,56.7,85.2,inactive
Cdx4 (caudal type homeobox 4),1,80.9,74.5,inactive
Cdx4 (caudal type homeobox 4),2,94.4,87.9,inactive
Cdx4 (caudal type homeobox 4),3,67.9,62,inactive
Mcm2 (minichromosome maintenance complex component 2),1,114,96.1,inactive
Mcm2 (minichromosome maintenance complex component 2),2,43.1,48.7,inactive
Mcm2 (minichromosome maintenance complex component 2),3,69.4,73.9,inactive
B930095G15Rik (RIKEN cDNA B930095G15 gene),1,88.2,75.8,inactive
B930095G15Rik (RIKEN cDNA B930095G15 gene),2,51.6,61.8,inactive
B930095G15Rik (RIKEN cDNA B930095G15 gene),3,128,79.2,active
Tspan15 (tetraspanin 15),1,96.8,82,inactive
Tspan15 (tetraspanin 15),2,52.8,52.8,inactive
Tspan15 (tetraspanin 15),3,78.3,78.6,inactive
"Naa15 (N(alpha)-acetyltransferase 15, NatA auxiliary subunit)",1,104,99.8,inactive
"Naa15 (N(alpha)-acetyltransferase 15, NatA auxiliary subunit)",2,89.1,121,inactive
"Naa15 (N(alpha)-acetyltransferase 15, NatA auxiliary subunit)",3,108,113,inactive
Pacsin2 (protein kinase C and casein kinase substrate in neurons 2),1,82.1,112,inactive
Pacsin2 (protein kinase C and casein kinase substrate in neurons 2),2,68.2,57.7,inactive
Trub2 (TruB pseudouridine (psi) synthase family member 2),1,128,99.6,active
Trub2 (TruB pseudouridine (psi) synthase family member 2),2,52.8,70.1,inactive
Trub2 (TruB pseudouridine (psi) synthase family member 2),3,24.5,40.7,inactive
